For experiment [1], the target named is T1, RAF2/SDIRIP1, BiFC fusion (A. thaliana) (UniProt Q9LU63).
T1 sequence: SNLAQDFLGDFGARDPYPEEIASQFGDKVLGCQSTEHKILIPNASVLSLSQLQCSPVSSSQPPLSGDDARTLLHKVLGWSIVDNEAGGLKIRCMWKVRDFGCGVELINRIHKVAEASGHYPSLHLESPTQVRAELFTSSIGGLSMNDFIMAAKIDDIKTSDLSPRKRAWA
As to the kind of experiment: split reporter; BiFC in planta: N. benthamiana leaves agroinfiltrated with pSITE-nEYFP-C1 and pSITE-cEYFP-C1 fusions, confocal microscopy three days after agroinfiltration.

In experiment [2] the target is T2, LSU2, BiFC fusion (nYFP-LSU2 or cYFP-LSU2) (A. thaliana) (UniProt Q9FIR9).
T2 sequence: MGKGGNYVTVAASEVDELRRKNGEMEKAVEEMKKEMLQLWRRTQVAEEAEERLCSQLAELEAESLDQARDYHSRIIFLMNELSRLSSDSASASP
The experiment is described as above.

Experiment [3] addresses T3, APS1 (ATP sulfurylase), BiFC fusion (A. thaliana) (UniProt Q9LIK9).
T3 sequence: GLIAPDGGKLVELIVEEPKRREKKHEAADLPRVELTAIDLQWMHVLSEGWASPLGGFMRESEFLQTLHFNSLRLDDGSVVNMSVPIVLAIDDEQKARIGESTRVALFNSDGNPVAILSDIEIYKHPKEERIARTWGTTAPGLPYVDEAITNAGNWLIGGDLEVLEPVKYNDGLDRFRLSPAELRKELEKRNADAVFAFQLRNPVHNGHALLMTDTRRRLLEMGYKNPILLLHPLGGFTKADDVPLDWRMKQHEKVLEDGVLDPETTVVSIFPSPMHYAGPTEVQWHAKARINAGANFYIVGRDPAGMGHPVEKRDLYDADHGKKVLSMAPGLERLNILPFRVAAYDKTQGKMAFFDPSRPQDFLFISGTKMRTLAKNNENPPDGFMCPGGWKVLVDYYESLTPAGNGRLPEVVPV
The description is as above.

For experiment [4], the target named is T4, CAT2 (peroxisomal catalase), BiFC fusion (A. thaliana) (UniProt P25819).
T4 sequence: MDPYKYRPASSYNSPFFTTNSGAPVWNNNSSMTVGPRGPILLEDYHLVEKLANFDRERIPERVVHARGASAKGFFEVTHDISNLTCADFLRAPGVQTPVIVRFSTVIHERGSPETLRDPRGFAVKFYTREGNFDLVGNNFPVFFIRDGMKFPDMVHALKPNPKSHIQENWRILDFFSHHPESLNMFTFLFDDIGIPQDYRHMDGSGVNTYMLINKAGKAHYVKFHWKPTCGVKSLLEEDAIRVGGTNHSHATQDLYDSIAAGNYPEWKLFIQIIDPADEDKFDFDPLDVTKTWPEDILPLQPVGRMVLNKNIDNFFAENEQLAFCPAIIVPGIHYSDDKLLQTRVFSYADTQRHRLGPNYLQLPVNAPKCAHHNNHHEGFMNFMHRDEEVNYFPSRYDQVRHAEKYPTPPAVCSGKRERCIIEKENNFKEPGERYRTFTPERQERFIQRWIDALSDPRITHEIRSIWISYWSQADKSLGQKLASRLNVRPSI
The description is as above.

Experiment [5] concerns the target T5, NBR1 (selective autophagy cargo receptor), BiFC fusion (A. thaliana) (UniProt Q9SB64).
T5 sequence: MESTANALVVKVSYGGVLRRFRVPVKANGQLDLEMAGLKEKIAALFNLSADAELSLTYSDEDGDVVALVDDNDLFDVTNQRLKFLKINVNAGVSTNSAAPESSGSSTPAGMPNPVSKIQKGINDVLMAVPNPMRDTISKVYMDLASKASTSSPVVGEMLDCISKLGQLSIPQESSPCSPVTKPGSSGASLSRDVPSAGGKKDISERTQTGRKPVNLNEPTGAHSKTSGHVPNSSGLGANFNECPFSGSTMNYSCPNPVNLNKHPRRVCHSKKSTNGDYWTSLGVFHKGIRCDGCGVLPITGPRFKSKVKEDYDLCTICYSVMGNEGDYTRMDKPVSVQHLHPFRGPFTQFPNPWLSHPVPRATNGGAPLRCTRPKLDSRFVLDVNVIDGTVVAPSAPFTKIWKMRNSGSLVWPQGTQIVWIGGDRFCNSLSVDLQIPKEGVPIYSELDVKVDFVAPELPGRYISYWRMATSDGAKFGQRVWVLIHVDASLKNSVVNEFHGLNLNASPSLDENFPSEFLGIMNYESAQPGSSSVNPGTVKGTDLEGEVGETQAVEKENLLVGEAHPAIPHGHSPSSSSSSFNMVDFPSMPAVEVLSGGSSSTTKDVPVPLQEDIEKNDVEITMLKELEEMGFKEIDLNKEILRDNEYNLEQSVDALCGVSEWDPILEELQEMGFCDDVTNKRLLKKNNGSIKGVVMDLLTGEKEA
Described as above.

The target of experiment [6] is T6, LSU4, BiFC fusion (nYFP-LSU4 or cYFP-LSU4) (A. thaliana) (UniProt Q8L8S2).
T6 sequence: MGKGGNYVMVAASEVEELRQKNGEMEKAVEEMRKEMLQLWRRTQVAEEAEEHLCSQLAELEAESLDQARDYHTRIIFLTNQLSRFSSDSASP
The experiment is described as above.

Experiment [7] has as its target T7, APS1 (ATP sulfurylase), yeast two-hybrid fusion (A. thaliana), Q9LIK9.
T7 chain: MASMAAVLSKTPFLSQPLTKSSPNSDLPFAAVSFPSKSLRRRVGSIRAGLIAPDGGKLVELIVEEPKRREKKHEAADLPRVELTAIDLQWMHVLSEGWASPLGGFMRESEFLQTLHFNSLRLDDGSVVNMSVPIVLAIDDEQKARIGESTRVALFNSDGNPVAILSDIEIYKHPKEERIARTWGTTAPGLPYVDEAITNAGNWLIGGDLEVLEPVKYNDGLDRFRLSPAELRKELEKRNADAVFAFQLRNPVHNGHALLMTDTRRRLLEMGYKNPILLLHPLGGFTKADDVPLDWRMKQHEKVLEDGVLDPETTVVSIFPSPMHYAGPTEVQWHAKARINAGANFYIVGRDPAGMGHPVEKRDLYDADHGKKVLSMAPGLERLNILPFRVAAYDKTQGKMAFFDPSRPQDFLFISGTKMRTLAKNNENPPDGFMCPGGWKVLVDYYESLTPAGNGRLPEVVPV
The experiment is described as follows: two-hybrid; Yeast Y2HGold or PJ69-4a; pDEST22 (GAL4 AD) and pDEST32 (GAL4 BD); growth on -LTH + 3 mM or 5 mM 3-AT or on -LTA; 30°C, or room temperature for longer exposures. To be noted: remark: other sources report otherwise.

In experiment [8] the target is T8, RAF2/SDIRIP1, yeast two-hybrid fusion (A. thaliana) (UniProt Q9LU63).
T8 sequence: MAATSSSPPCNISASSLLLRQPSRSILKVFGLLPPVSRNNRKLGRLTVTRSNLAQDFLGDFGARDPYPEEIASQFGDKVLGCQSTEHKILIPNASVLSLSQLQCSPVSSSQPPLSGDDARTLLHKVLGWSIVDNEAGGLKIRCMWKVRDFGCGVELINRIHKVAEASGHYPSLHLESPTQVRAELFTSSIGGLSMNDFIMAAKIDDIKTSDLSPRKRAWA
The experiment is described as above.

Experiment [9] deals with T9, LSU2 (RESPONSE TO LOW SULFUR 2), yeast two-hybrid fusion (A. thaliana) (UniProt Q9FIR9).
T9 sequence: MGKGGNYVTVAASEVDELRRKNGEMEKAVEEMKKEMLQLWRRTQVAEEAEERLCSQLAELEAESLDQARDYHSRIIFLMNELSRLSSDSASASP
The experiment is described as above.

Experiment [10] has as its target T10, NBR1 (selective autophagy cargo receptor), yeast two-hybrid fusion (A. thaliana) (UniProt Q9SB64).
T10 sequence: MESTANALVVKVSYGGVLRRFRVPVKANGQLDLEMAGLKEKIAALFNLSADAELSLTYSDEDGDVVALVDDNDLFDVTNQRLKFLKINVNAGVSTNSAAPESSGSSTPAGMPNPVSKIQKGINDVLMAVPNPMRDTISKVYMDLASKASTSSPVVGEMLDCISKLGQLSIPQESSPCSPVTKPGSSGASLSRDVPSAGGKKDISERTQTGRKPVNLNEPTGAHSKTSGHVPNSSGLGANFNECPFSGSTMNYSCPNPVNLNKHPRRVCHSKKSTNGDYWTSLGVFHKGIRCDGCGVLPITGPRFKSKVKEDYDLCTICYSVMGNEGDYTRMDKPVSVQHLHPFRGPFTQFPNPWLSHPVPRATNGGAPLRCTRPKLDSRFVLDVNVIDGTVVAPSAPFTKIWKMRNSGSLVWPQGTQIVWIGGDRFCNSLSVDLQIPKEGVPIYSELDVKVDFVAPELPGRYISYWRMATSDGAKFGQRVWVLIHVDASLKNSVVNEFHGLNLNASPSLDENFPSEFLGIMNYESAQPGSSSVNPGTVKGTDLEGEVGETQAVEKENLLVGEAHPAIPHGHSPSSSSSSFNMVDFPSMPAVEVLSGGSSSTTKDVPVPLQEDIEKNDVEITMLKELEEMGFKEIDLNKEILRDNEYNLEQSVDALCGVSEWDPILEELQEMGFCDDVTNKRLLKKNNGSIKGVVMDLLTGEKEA
The experiment is described as above.

The target in experiment [11] is T11, LSU1 (RESPONSE TO LOW SULFUR 1), yeast two-hybrid fusion (A. thaliana) (UniProt Q9SCK1).
T11 sequence: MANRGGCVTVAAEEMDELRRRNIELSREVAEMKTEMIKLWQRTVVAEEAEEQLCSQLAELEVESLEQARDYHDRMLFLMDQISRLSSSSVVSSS
Described as above.

The target in experiment [12] is T12, CAT2 (peroxisomal catalase), yeast two-hybrid fusion (A. thaliana) (UniProt P25819).
T12 sequence: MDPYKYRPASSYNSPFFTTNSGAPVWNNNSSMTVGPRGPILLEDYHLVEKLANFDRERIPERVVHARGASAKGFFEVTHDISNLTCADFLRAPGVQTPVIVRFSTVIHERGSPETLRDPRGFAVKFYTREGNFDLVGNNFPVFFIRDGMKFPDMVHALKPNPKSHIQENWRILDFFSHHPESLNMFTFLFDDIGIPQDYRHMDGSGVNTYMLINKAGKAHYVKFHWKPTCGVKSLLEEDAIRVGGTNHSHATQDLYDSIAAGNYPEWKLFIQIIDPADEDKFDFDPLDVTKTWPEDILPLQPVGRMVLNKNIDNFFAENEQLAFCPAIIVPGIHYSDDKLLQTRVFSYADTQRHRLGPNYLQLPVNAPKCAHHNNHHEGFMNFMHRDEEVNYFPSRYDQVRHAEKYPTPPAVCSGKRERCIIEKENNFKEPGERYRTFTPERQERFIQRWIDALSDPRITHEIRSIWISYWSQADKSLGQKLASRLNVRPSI
The description is as above.

Results are given in words; binding and its absence hold for the method and conditions named. For some of these results: Binding seen in cells or lysates may run through a third protein. Some entries that bind do so weakly or less than the wild type. Sequences can lack the tags named with a protein.

B1: LSU2, BiFC fusion (nYFP-LSU2 or cYFP-LSU2) (protein, UniProt Q9FIR9 1-94)
chain: MGKGGNYVTVAASEVDELRRKNGEMEKAVEEMKKEMLQLWRRTQVAEEAEERLCSQLAELEAESLDQARDYHSRIIFLMNELSRLSSDSASASP
For the molecule B1, the binding entry in experiment [1], in experiment [2], in [3], in experiment [4], in experiment [5] and in experiment [6] was “binds” in each case.

B2: LSU2 (RESPONSE TO LOW SULFUR 2), yeast two-hybrid fusion, Q9FIR9 1-94 (protein)
chain: MGKGGNYVTVAASEVDELRRKNGEMEKAVEEMKKEMLQLWRRTQVAEEAEERLCSQLAELEAESLDQARDYHSRIIFLMNELSRLSSDSASASP
As to B2, the binding entry in experiment [7] is recorded as “no binding”.

B3: LSU2 (RESPONSE TO LOW SULFUR 2), yeast two-hybrid fusion (protein, UniProt Q9FIR9 1-94)
chain: MGKGGNYVTVAASEVDELRRKNGEMEKAVEEMKKEMLQLWRRTQVAEEAEERLCSQLAELEAESLDQARDYHSRIIFLMNELSRLSSDSASASP
On to B3, for which the binding result was “binds weakly” in [8]; “binds weakly” in experiment [9]; “binds” in experiment [10]; “binds” in [11]; “binds weakly” in experiment [12].

B4: LSU4, BiFC fusion (nYFP-LSU4 or cYFP-LSU4) (protein, UniProt Q8L8S2 1-92)
chain: MGKGGNYVMVAASEVEELRQKNGEMEKAVEEMRKEMLQLWRRTQVAEEAEEHLCSQLAELEAESLDQARDYHTRIIFLTNQLSRFSSDSASP
As for B4, the binding entry in experiment [1], in experiment [3], in [4] and in experiment [5] was “binds” each time.

B5: LSU4 (RESPONSE TO LOW SULFUR 4), yeast two-hybrid fusion, Q8L8S2 1-92 (protein)
chain: MGKGGNYVMVAASEVEELRQKNGEMEKAVEEMRKEMLQLWRRTQVAEEAEEHLCSQLAELEAESLDQARDYHTRIIFLTNQLSRFSSDSASP
For the molecule B5, in [7], the binding result is recorded as “no binding”.

B6: LSU3 (RESPONSE TO LOW SULFUR 3), yeast two-hybrid fusion (protein, UniProt Q9SCK2 1-97)
chain: MGKGGGYVTVAAEEVEELRRRNGELEREMEEMKKEMVQLWRRTVVAEEAEERLCSQLAELEVESLDQARDYHSRIVFLMDQISRLSSSSLEVVVTNS
Take B6: the binding entry in experiment [8], in experiment [10], in [11] and in [12] was “binds” throughout.

B7: LSU3, BiFC fusion (nYFP-LSU3 or cYFP-LSU3) (protein, UniProt Q9SCK2 1-97)
chain: MGKGGGYVTVAAEEVEELRRRNGELEREMEEMKKEMVQLWRRTVVAEEAEERLCSQLAELEVESLDQARDYHSRIVFLMDQISRLSSSSLEVVVTNS
Turning to B7, the binding result in [1], in experiment [3], in experiment [4], in experiment [5] and in [6] was “binds” throughout.

B8: LSU3 (RESPONSE TO LOW SULFUR 3), yeast two-hybrid fusion, Q9SCK2 1-97 (protein)
chain: MGKGGGYVTVAAEEVEELRRRNGELEREMEEMKKEMVQLWRRTVVAEEAEERLCSQLAELEVESLDQARDYHSRIVFLMDQISRLSSSSLEVVVTNS
Regarding B8, the binding result in experiment [7] is on record as “no binding”.

B9: LSU1 (RESPONSE TO LOW SULFUR 1), yeast two-hybrid fusion, Q9SCK1 1-94 (protein)
chain: MANRGGCVTVAAEEMDELRRRNIELSREVAEMKTEMIKLWQRTVVAEEAEEQLCSQLAELEVESLEQARDYHDRMLFLMDQISRLSSSSVVSSS
On to B9, for which, in experiment [7], the binding entry is “no binding”.
